Results are given in words; binding and its absence hold for the method and conditions named. In cells and extracts the contact can be indirect. Some binding calls cover weakened binding; strength is not graded here. For part of these data: Sequences can lack the tags named with a protein.
T1: Atp6 with a tandem hemagglutinin plus poly histidine tag (S. cerevisiae) (UniProt P00854)
T1 sequence: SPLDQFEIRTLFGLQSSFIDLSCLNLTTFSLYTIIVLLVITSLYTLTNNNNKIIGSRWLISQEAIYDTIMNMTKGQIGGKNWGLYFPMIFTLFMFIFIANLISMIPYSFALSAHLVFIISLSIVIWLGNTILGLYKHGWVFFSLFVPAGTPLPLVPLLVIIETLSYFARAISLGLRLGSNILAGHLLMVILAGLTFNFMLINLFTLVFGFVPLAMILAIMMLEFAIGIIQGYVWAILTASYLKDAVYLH


How the values were obtained:
[1] = target: T1, Atp6 with a tandem hemagglutinin plus poly histidine tag (S. cerevisiae); experiment: pull-down; Atp6-HApH held on Ni-NTA beads; 2% digitonin extracts of mitochondria pulse-labelled with 35S-methionine/cysteine for 5 or 10 min and chased for 0, 30 or 60 min; SDS-PAGE, BN-PAGE and 2D gels
[2] = target: Atp9 with the V68C and S69C mutations (S. cerevisiae) (UniProt P61829); experiment: cross-linking; Atp9 ring of the ATP synthase: submitochondrial particles treated with 1.5 mM CuP for 1 h; with or without 5% TCA before SDS sample buffer without beta-mercaptoethanol; SDS-PAGE on a 15% gel, Western blot
[3] = target: Atp9 with the V68C and S69C mutations (S. cerevisiae) (UniProt P61829); experiment: cross-linking; radiolabelled Atco purified on protein C antibody beads from mss51 pet494 double mutant mitochondria, incubated with and without CuP; SDS-PAGE on a 15% gel with and without 1% beta-mercaptoethanol

| Binder | binding [1] | binding [2] | binding [3] |
| --- | --- | --- | --- |
| MPQLVPFYFMNQLTYGFLLMITLLILFSQFFLPMILRLYVSRLFISKL (peptide, UniProt P00856 1-48) [Atp8] | binds |  |  |
| Atp9 with the V68C and S69C mutations (protein, UniProt P61829 1-76) MQLVLAAKYIGAGISTIGLLGAGIGIAIVFAALINGVSRNPSIKDTVFPMAILGFALSEATGLFCLMCCFLLLFGV |  | binds | binds |

Reference: article PMC7228087
